Measurements from article doi:10.1101/2025.04.28.650959.
Results are given in words; binding and its absence hold for the method and conditions named. Binding seen in cells or lysates may run through a third protein. Some entries that bind do so weakly or less than the wild type.

Chains of the proteins cited; added tags and fusions are not shown.
UniProt Q14258, whole entry: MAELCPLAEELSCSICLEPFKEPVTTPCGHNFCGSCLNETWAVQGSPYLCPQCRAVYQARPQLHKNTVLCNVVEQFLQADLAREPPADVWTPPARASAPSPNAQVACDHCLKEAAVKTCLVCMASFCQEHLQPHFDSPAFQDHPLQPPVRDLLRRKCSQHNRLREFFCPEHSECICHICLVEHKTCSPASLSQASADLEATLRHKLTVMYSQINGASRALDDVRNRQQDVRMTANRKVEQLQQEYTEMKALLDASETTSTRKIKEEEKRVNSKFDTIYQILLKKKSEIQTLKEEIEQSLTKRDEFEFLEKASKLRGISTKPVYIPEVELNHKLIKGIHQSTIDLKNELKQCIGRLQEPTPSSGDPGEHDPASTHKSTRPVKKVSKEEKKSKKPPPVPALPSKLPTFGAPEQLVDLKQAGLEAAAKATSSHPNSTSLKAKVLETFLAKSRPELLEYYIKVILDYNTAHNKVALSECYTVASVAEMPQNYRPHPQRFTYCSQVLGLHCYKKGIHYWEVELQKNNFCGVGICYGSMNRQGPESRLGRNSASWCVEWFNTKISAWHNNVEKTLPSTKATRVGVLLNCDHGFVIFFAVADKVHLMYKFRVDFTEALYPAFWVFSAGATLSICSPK
UniProt Q7Z2W4, whole entry: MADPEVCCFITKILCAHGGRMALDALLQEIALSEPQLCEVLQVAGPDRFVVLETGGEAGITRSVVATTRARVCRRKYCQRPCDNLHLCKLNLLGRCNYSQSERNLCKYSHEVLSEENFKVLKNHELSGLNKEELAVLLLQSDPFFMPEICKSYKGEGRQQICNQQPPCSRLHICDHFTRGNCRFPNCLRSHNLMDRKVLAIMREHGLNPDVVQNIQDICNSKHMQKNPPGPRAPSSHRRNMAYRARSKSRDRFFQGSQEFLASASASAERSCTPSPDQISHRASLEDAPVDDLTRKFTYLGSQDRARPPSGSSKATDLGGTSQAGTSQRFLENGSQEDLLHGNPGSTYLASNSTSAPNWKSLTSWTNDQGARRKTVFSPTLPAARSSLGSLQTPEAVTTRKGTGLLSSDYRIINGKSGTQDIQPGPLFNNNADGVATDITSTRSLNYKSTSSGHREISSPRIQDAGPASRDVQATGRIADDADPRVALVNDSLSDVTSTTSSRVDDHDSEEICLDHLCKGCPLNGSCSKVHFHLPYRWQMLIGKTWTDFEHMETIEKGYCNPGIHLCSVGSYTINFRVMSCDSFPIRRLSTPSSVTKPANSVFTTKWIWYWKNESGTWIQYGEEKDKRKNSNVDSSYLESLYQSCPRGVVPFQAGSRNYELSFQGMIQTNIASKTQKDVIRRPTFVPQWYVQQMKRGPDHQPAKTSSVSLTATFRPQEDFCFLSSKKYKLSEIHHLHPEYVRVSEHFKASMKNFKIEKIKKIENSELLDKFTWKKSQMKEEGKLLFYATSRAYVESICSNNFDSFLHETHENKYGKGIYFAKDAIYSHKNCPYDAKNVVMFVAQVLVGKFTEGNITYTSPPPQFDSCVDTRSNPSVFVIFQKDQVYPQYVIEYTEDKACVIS
UniProt O15037, whole entry: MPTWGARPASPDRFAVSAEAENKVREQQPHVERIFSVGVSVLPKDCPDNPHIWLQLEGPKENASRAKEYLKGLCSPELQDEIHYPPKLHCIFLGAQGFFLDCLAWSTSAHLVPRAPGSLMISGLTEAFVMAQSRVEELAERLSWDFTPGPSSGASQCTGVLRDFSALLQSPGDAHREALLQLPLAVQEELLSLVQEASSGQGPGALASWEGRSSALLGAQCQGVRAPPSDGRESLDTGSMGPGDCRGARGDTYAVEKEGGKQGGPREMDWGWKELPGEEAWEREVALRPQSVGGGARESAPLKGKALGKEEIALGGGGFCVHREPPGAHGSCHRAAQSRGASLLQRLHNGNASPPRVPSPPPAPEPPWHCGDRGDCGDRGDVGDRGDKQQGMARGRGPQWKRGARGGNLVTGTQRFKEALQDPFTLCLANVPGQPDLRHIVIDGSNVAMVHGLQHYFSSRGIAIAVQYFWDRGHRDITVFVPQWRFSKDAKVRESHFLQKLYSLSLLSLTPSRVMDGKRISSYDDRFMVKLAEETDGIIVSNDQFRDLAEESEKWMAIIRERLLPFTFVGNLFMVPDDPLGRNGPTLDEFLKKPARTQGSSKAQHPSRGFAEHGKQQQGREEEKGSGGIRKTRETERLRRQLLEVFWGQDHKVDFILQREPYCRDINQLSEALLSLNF
UniProt Q8IZH2, whole entry: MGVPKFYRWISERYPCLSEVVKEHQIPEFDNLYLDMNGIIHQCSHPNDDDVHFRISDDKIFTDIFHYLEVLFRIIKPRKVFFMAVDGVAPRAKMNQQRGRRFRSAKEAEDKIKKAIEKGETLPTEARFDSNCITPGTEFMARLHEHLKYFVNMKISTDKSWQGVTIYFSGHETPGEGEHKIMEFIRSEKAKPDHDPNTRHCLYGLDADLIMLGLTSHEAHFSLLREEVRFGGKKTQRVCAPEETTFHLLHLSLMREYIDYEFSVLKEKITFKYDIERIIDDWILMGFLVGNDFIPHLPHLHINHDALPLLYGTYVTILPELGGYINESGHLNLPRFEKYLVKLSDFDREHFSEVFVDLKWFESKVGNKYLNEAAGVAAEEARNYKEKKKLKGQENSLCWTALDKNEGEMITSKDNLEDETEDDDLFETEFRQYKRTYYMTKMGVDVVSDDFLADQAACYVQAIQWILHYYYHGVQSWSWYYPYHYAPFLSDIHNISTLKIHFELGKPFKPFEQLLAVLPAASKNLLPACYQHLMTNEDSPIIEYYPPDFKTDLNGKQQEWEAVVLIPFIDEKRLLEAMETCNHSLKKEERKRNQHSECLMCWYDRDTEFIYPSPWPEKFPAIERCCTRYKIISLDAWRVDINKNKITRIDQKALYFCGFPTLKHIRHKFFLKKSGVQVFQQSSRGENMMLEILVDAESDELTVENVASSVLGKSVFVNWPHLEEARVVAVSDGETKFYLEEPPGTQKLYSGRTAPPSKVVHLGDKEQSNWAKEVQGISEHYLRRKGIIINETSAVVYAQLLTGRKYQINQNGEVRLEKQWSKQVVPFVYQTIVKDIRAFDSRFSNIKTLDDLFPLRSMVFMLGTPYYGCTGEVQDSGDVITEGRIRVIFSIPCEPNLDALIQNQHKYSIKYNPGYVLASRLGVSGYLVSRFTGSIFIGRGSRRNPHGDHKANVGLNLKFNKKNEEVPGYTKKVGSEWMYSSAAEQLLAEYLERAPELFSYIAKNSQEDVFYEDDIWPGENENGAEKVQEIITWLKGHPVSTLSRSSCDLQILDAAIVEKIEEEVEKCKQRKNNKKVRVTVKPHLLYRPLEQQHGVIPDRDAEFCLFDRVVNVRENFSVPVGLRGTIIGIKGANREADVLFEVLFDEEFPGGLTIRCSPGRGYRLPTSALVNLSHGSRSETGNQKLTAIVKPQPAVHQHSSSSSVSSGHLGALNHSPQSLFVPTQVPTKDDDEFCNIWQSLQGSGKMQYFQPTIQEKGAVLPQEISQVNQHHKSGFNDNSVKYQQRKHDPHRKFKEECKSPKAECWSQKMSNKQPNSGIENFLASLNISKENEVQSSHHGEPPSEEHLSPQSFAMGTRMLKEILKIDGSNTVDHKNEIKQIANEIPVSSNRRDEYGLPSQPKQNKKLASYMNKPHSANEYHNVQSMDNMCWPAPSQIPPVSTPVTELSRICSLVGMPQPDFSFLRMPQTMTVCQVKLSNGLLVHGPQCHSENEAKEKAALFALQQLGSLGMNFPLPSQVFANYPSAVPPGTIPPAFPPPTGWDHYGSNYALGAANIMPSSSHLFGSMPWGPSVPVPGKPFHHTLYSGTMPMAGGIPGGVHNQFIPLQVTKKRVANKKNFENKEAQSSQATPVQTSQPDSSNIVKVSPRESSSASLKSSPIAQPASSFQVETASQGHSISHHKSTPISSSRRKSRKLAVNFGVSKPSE

Legend:
[1] = molecular target: TRIM25 (E3 ubiquitin ligase), endogenous (human (endogenous in HEK293T and HeLa)) (UniProt Q14258); assay: co-IP
[2] = molecular target: ZAP-long (ZAP-L), endogenous in HEK293T ZAP-S knockout cells (human (endogenous in HEK293T)) (UniProt Q7Z2W4); assay: co-IP

Row | Substance | binding [1] | binding [2]
1 | KHNYN (endoribonuclease), endogenous (from UniProt O15037 1-678) | binds | binds
2 | TRIM25 (E3 ubiquitin ligase), endogenous (from UniProt Q14258 1-630) |  | binds
3 | XRN1 (5'-3' exonuclease), endogenous (from UniProt Q8IZH2 1-1706) | binds | 
